The record followed here is publication PMC5156329.

These are yes or no findings as the source states them, for the method shown. In cells and extracts the contact can be indirect. Some binding calls cover weakened binding; strength is not graded here. Where a sequence is shown, tags or fusion partners need not be part of it.

The target of this experiment is T1, KSHV ORF57-eGFP (Kaposi's sarcoma-associated herpesvirus (KSHV)) (UniProt Q2HR75).
T1 sequence: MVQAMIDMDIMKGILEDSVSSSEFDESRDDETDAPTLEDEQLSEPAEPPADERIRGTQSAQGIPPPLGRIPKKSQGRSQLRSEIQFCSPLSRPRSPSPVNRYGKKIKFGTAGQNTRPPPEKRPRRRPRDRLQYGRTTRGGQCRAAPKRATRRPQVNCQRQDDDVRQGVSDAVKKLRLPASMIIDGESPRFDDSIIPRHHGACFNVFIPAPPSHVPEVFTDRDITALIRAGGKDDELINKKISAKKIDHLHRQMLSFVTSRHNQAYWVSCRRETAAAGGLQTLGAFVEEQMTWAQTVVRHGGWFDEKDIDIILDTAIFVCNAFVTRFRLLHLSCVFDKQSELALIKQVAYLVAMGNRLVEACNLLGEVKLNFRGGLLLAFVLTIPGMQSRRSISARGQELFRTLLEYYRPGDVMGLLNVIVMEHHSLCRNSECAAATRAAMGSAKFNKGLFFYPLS
Nature of the experiment: co-IP; lysates of HEK-293T cells transfected 24 h with ORF57-eGFP or eGFP, incubated with GFP-trap agarose beads; RNase A (0.01 U ml^-1) added to the lysates; Western blot of endogenous partners. In general terms: Immunoblotting shows a protein as a band on a membrane.

B1: CIP29 (protein, UniProt P82979 1-210)
chain: MATETVELHKLKLAELKQECLARGLETKGIKQDLIHRLQAYLEEHAEEEANEEDVLGDETEEEETKPIELPVKEEEPPEKTVDVAAEKKVVKITSEIPQTERMQKRAERFNVPVSLESKKAARAARFGISSVPTKGLSSDNKPMVNLDKLKERAQRFGLNVSSISRKSEDDEKLKKRKERFGIVTSSAGTGTTEDTEAKKRKRAERFGIA
For B1, the binding result is given as “binds”.
